Results are given in words; binding and its absence hold for the method and conditions named. Some binding calls cover weakened binding; strength is not graded here. Where a sequence is shown, tags or fusion partners need not be part of it.
B1: T25 fusion to DamX (protein, UniProt P11557 1-428)
chain: MDEFKPEDELKPDPSDRRTGRSRQSSERSERTERGEPQINFDDIELDDTDDRRPTRAQKERNEEPEIEEEIDESEDETVDEERVERRPRKRKKAASKPASRQYMMMGVGILVLLLLIIGIGSALKAPSTTSSDQTASGEKSIDLAGNATDQANGVQPAPGTTSAENTQQDVSLPPISSTPTQGQTPVATDGQQRVEVQGDLNNALTQPQNQQQLNNVAVNSTLPTEPATVAPVRNGNASRDTAKTQTAERPSTTRPARQQAVIEPKKPQATVKTEPKPVAQTPKRTEPAAPVASTKAPAATSTPAPKETATTAPVQTASPAQTTATPAAGAKTAGNVGSLKSAPSSHYTLQLSSSSNYDNLNGWAKKENLKNYVVYETTRNGQPWYVLVSGVYASKEEAKKAVSTLPADVQAKNPWAKPLRQVQADLK
B2: T25 fusion to FtsI (protein, UniProt P0AD68 1-588)
chain: MKAAAKTQKPKRQEEHANFISWRFALLCGCILLALAFLLGRVAWLQVISPDMLVKEGDMRSLRVQQVSTSRGMITDRSGRPLAVSVPVKAIWADPKEVHDAGGISVGDRWKALANALNIPLDQLSARINANPKGRFIYLARQVNPDMADYIKKLKLPGIHLREESRRYYPSGEVTAHLIGFTNVDSQGIEGVEKSFDKWLTGQPGERIVRKDRYGRVIEDISSTDSQAAHNLALSIDERLQALVYRELNNAVAFNKAESGSAVLVDVNTGEVLAMANSPSYNPNNLSGTPKEAMRNRTITDVFEPGSTVKPMVVMTALQRGVVRENSVLNTIPYRINGHEIKDVARYSELTLTGVLQKSSNVGVSKLALAMPSSALVDTYSRFGLGKATNLGLVGERSGLYPQKQRWSDIERATFSFGYGLMVTPLQLARVYATIGSYGIYRPLSITKVDPPVPGERVFPESIVRTVVHMMESVALPGGGGVKAAIKGYRIAIKTGTAKKVGPDGRYINKYIAYTAGVAPASQPRFALVVVINDPQAGKYYGGAVSAPVFGAIMGGVLRTMNIEPDALTTGDKNEFVINQGEGTGGRS
B3: T25 fusion to FtsN (protein, UniProt P29131 1-319)
chain: MAQRDYVRRSQPAPSRRKKSTSRKKQRNLPAVSPAMVAIAAAVLVTFIGGLYFITHHKKEESETLQSQKVTGNGLPPKPEERWRYIKELESRQPGVRAPTEPSAGGEVKTPEQLTPEQRQLLEQMQADMRQQPTQLVEVPWNEQTPEQRQQTLQRQRQAQQLAEQQRLAQQSRTTEQSWQQQTRTSQAAPVQAQPRQSKPASSQQPYQDLLQTPAHTTAQSKPQQAAPVARAADAPKPTAEKKDERRWMVQCGSFRGAEQAETVRAQLAFEGFDSKITTNNGWNRVVIGPVKGKENADSTLNRLKMAGHTNCIRLAAGG
B4: T25 fusion to DedD (protein, UniProt P09549 1-220)
chain: MASKFQNRLVGTIVLVALGVIVLPGLLDGQKKHYQDEFAAIPLVPKAGDRDEPDMMPAATQALPTQPPEGAAEEVRAGDAAAPSLDPATIAANNTEFEPEPAPVAPPKPKPVEPPKPKVEAPPAPKPEPKPVVEEKAAPTGKAYVVQLGALKNADKVNEIVGKLRGAGYRVYTSPSTPVQGKITRILVGPDASKDKLKGSLGELKQLSGLSGVVMGYTPN
B5: T25 fusion to FtsA (protein, UniProt P0ABH0 1-420)
chain: MIKATDRKLVVGLEIGTAKVAALVGEVLPDGMVNIIGVGSCPSRGMDKGGVNDLESVVKCVQRAIDQAELMADCQISSVYLALSGKHISCQNEIGMVPISEEEVTQEDVENVVHTAKSVRVRDEHRVLHVIPQEYAIDYQEGIKNPVGLSGVRMQAKVHLITCHNDMAKNIVKAVERCGLKVDQLIFAGLASSYSVLTEDERELGVCVVDIGGGTMDIAVYTGGALRHTKVIPYAGNVVTSDIAYAFGTPPSDAEAIKVRHGCALGSIVGKDESVEVPSVGGRPPRSLQRQTLAEVIEPRYTELLNLVNEEILQLQEKLRQQGVKHHLAAGIVLTGGAAQIEGLAACAQRVFHTQVRIGAPLNITGLTDYAQEPYYSTAVGLLHYGKESHLNGEAEVEKRVTASVGSWIKRLNSWLRKEF

By UniProt entry, the sequences of proteins in these tests, tags left out.
UniProt P06136: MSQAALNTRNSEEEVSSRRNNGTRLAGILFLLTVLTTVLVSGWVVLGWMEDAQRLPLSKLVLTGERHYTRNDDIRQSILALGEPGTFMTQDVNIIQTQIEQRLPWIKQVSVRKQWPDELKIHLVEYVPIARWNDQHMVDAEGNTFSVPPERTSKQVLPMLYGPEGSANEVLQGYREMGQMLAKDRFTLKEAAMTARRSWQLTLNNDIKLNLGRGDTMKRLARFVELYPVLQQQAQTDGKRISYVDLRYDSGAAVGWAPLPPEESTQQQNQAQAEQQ

Tests used:
[1] = biological target: T1, DrpB-T18 (DrpB, division ring protein B, formerly YedR, fused to the T18 fragment of Bordetella pertussis adenylate cyclase) (Escherichia coli) (UniProt P76334); test: two-hybrid; bacterial adenylate cyclase two-hybrid (BACTH) in E. coli DHM1; DrpB-T18 (pUT18 derivative) with T25 fusions (pKT25, YmgF* in pKNT25); quantitative beta-galactosidase assay of cultures in LB Amp Kan with 40 uM IPTG, 30 C, 16 h; qualitatively similar when IPTG was omitted
T1 sequence: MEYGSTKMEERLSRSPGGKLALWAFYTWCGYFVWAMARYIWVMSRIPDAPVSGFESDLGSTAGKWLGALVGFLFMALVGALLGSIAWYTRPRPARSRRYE

[2] = biological target: T1, DrpB-T18 (DrpB, division ring protein B, formerly YedR, fused to the T18 fragment of Bordetella pertussis adenylate cyclase) (Escherichia coli); test: two-hybrid; BACTH in E. coli DHM1, assayed visually by spotting onto minimal medium plates containing Amp, Kan, IPTG and X-gal

Molecule	binding [1]	binding [2]
T25 fusion to FtsQ (from UniProt P06136 1-276)	binds	binds
B1	binds	binds
B2	binds	binds
B3	binds	binds
B4	binds weakly	binds weakly
B5	binds weakly	binds weakly
